The target in assay [1] is T1, Flag-tagged MCT4 (monocarboxylate transporter 4), full length (UniProt O15427).
T1 sequence: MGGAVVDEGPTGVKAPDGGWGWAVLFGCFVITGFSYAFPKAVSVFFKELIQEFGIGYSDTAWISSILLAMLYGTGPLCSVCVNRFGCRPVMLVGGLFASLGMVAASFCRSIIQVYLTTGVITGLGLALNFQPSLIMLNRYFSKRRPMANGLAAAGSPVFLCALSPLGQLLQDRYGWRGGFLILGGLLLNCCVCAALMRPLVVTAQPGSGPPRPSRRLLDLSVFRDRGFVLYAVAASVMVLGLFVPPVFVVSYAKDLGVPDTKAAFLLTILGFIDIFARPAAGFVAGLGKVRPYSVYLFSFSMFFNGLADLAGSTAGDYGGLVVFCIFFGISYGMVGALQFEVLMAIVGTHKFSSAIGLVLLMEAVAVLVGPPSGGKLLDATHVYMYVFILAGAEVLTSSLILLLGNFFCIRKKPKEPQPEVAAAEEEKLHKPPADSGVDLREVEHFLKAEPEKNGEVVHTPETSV
Kind of assay: proximity ligation; PLA in HEK293T cells cotransfected with HA-SYVN1 and Flag-MCT4 or its deletion mutants; signals quantified with ImageJ.

Chains of the proteins cited; added tags and fusions are not shown.
UniProt Q86TM6: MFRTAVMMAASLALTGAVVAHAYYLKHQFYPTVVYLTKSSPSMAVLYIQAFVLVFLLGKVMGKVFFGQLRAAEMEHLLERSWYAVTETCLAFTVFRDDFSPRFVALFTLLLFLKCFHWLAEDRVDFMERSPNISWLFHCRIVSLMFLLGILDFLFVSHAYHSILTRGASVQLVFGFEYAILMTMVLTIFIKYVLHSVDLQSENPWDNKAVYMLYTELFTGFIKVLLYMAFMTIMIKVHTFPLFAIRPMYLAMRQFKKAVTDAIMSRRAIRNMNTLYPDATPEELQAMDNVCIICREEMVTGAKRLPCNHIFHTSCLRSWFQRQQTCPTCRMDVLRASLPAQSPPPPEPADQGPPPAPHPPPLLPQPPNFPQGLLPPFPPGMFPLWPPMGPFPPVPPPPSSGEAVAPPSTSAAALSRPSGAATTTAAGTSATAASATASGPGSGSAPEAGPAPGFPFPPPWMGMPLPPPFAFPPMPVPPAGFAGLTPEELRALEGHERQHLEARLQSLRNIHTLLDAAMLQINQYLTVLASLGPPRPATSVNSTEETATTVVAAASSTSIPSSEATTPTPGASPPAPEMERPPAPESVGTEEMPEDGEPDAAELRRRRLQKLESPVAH

Assay [2] has as its target T1, Flag-tagged MCT4 (monocarboxylate transporter 4), full length. Kind of assay: co-IP; HEK293T cotransfected with Flag-MCT4 (or its deletion mutants) and HA-SYVN1, 48 h; nondenaturing IP in native lysis buffer with anti-Flag or anti-HA antibody, immunoblot. In general terms: In western blotting, separated proteins are transferred to a membrane and probed.
The target in assay [3] is T2, MCT4 (monocarboxylate transporter 4), endogenous (human (endogenous in A549 and H1752)) (UniProt O15427).
T2 sequence: T1 sequence
Put plainly: co-IP; immunoprecipitation of endogenous proteins in A549 cells.

The target of assay [4] is T2, MCT4 (monocarboxylate transporter 4), endogenous (human (endogenous in A549 and H1752)). Put plainly: proximity ligation; Duolink in situ PLA in fixed A549/H1752 cells with anti-MCT4 and anti-SYVN1 antibodies.
The target in assay [5] is HA-tagged SYVN1 (Synoviolin 1) (UniProt Q86TM6). Put plainly: co-IP; HEK293T cotransfected with Flag-MCT4 (or its deletion mutants) and HA-SYVN1, 48 h; nondenaturing IP in native lysis buffer with anti-Flag or anti-HA antibody, immunoblot.

Drawing on article PMC10564934, this text covers binding for three molecules.

Results are given in words; binding and its absence hold for the method and conditions named. In cells and extracts the contact can be indirect. Some binding calls cover weakened binding; strength is not graded here. For some assays here: Where a sequence is shown, tags or fusion partners need not be part of it.

Take “HA-tagged SYVN1 (Synoviolin 1) (from UniProt Q86TM6 1-617) (enzyme)”: the binding entry in assay [1] and in assay [2] was “binds” in each case.
Consider “SYVN1 (Synoviolin 1), endogenous (from UniProt Q86TM6 1-617) (enzyme)”, for which the binding result in assay [3] and in assay [4] was “binds” in each case.

B1: Flag-tagged MCT4 (monocarboxylate transporter 4), full length (protein, UniProt O15427 1-465)
chain: T1 sequence
As for B1, in assay [5], the binding entry was “binds”.
